At least one compound was matched to its structure with a doubt left.
Molecular target: hIgG1 (Homo sapiens, UniProt P01857)
Test: Affinity interaction between FcL1 and human IgG1 via bio-layer interferometry
Type: binding
Conditions: hIgG1, bio-layer interferometry (FIG. 3)

CC(C)[C@H](NC(=O)[C@H](Cc1c[nH]c2ccccc12)NC(=O)CNC(=O)[C@H](CCCNC(=N)N)NC(=O)[C@H](Cc1c[nH]c2ccccc12)NC(=O)[C@@H](N)Cc1c[nH]cn1)C(=O)NCC(=O)N[C@@H](C)C(=O)N[C@@H](CCCCNC(=O)CCCC[C@@H]1SC[C@@H]2NC(=O)N[C@@H]21)C(=O)N[C@@H](CO)C(=O)N[C@@H](CCCCN)C(=O)NCC(=O)O [FcL1]
Kd: 46 µM

From patent US20230364025A1, “PROTEIN-RELEASE SYSTEM FOR SUSTAINED RELEASE OF PROTEINS” (THE GOVERNING COUNCIL OF THE UNIVERSITY OF TORONTO, priority 2022, published 2023)
